Source: patent publication US20090137411A1, “Methods and biochips for detecting small molecule compounds” (priority 2004, published 2009)

Tested on: anti-drug mouse monoclonal antibodies
Assay: Biochip competitive immunoassay for prohibited substances in urine
Assay type: binding
Details: competitive immunoassay on chip

Compound: CN1CC[C@]23c4c5ccc(O)c4O[C@H]2[C@@H](O)C=C[C@H]3[C@H]1C5 [Morphine, morphine]
- Cutoff value (the 50% inhibitory concentration): 1.7 µg/L
